Source: PubChem BioAssay AID743286 (National Center for Advancing Translational Sciences (NCATS), 2014)
About 340 (31%) of roughly 1,100 compounds were called active. Roughly 40% stayed inconclusive and do not appear here. Calls come from the whole dose curve; as a rule, active = well fitted inhibition curve with a large enough effect; inconclusive = small, poorly fitted or top-dose-only effect; inactive = flat fitted curve, though single readings scatter. The entries are a selection whose mix differs from that of the whole data set.

Chains of the proteins cited; added tags and fusions are not shown.
UniProt P48426, whole entry: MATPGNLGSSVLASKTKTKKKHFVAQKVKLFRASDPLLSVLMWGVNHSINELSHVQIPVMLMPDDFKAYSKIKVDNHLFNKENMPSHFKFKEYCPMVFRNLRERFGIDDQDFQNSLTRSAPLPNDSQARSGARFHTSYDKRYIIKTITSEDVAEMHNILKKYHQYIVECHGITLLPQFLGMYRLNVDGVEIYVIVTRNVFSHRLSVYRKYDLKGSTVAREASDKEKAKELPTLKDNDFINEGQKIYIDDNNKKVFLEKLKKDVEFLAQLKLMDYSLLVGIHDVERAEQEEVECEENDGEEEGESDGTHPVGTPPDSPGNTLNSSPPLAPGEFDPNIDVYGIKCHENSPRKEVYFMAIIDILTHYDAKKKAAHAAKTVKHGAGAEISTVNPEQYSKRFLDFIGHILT

What follows are compounds tested against Phosphatidylinositol 5-phosphate 4-kinase type-2 alpha (Homo sapiens) (UniProt P48426) (assay: qHTS for Inhibitors of PI5P4K: Confirmation in Primary Assay). Conditions: PI5P4Kalpha enzyme, ADP-Glo luminescence, 60 min; at 76.9 µM (top of the series).
From the text: In addition to finding PI5P, we discovered the type II phosphatidylinositol 5-phosphate 4-kinase (PI5P4K) family (alpha, beta, gamma isoforms) that catalyze the conversion of PI5P to PI(4,5)P2. Alternatively, PI(4,5)P2 can also be synthesized through phosphatidylinositol-4-phosphate (PI4P) by the type I phosphatidylinositol 4-phosphate 5-kinases (PI4P5K). These PI5P4K enzymes therefore represent one way by which cells can regulate endogenous PI5P levels and play important roles in insulin signaling and in stress responses. […] A qHTS PI5P4K-alpha ADP-Glo assay was developed to identify specific modulators of human PI5P4K, phosphatidylinositol-5-phosphate 4-kinase (Type II PIPK). This assay was screened against the MLSMR containing ~400,000 small molecules (PubChem AID 652105). […]
2 microL of PI5P4Kalpha/substrate buffer (columns 1-2, 5-48) are dispensed into Greiner white solid bottom 1536-well assay plates; column 3 receives only PI5P4Kalpha buffer as 0x substrate controls; column 4 receives only substrate buffer as 0x PI5P4Kalpha controls. […] They are then transferred to a ViewLux high-throughput CCD imager (PerkinElmer) wherein single end-point measurements of luminescence are acquired using a clear filter.
% is set by controls: 0 for no effect and ±100 for the full control effect.
Note: nearly all actives have a fitted effect of over 65% in size.

Q: How did the activity change, negative = inhibition turn out when `COc1ccc(C(c2nnnn2-c2ccc3c(c2)OCCO3)N2CCC(n3c(=O)[nH]c4ccccc43)CC2)cc1` (configuration not stated) was run?
A: Its activity change, negative = inhibition is inactive: -5.25%.

Q: `CCCNC(=O)N1[C@H]2CC[C@@H]1C(C(=O)OC)=C(c1ccc(OC)c(OC)c1)C2` was tested. Which activity change, negative = inhibition did it give?
A: Its activity change, negative = inhibition is inactive: -2.68%.
